System: wild-type (WT) ELIC
Experiment: FlexStation membrane potential dye assay, GABA-elicited responses
Format: cell-based, D. didantii
Settings: HEK293 cells transfected with WT ELIC
Procedure: These methods were similar to those previously described ([55]). Briefly, ELIC cDNA was transfected into HEK293 cells, and these were then grown for 2 to 3 days in a 96-well plate. Then blue fluorescent membrane potential dye (Molecular Devices Ltd) diluted in Flex buffer (10 mM HEPES, 115 mM NaCl, 1 mM KCl, 1 mM CaCl2, 1 mM MgCl2, 10 mM glucose, pH 7.4) was added to each well. After incubation at 37 °C for 30 min, plates were placed in a FlexStation (Molecular Devices Ltd) and fluorescence measured every 2 s for 120 s. […] Concentration–response data were fitted to the four-parameter logistic equation, F = Fmin + (Fmax − Fmin)/(1 + 10^log(EC50-[A])∗^nH), where [A] is the concentration of agonist, nH is the Hill coefficient, and Fmax and Fmin are the maximal and minimal fluorescence levels for each dataset, using Prism software (GraphPad). WT and mutant responses were compared using an ANOVA test followed by Dunnett’s multiple comparison test.

Q: For NCCCC(=O)O [GABA], which pEC50 is on record?
A: Its pEC50 is 2.96 ± 0.20.

Q: What about the EC50 (read-out: GABA EC50-value) of the same molecule?
A: Its EC50 is 1100 µM.
